Literature values as cited in patent US20220249579A1, “SECRETED MICROBIAL EXTRACELLULAR VESICLES” (Evelo Biosciences, Inc., priority 2019, published 2022).
For at least one compound, name, drawing or mass did not settle the structure.

Tested on: KLH-based delayed type hypersensitivity model
Conditions: positive control; Taube and Carlsten 2000

C[C@@H]1C[C@H]2[C@@H]3CCC4=CC(=O)C=C[C@]4(C)[C@@]3(F)[C@@H](O)C[C@]2(C)[C@@]1(O)C(=O)CO [Dexamethasone]
effect on DTH reactions: ameliorates DTH reactions in mice
